Experimental data taken from the supplement of paper PMC6331611.
Several values for one entry are separate records, joined by “and”; a condition that tells them apart may be missing. Equal values may be shown once. ± gives the standard deviation of the averaged measurements. The full ranking holds about 1,600 compounds; the median of “normalized intracellular growth (luminescence, IQM-normalized) in RAW264.7 macrophages” is about 1, and the lowest 2% start at about 0.43. This is one part of the list.

Test system: Salmonella enterica serovar Typhimurium SL1344
Assay: normalized intracellular growth (luminescence, IQM-normalized) in RAW264.7 macrophages (fraction of plate interquartile mean); higher = more bacterial growth (less inhibition)
Settings: 10 µM

SMILES	normalized intracellular growth (time point: T3 (3 h))	normalized intracellular growth (time point: Tfinal (~6 h))
O=C1CCc2cc(OCCCCc3nnnn3C3CCCCC3)ccc2N1	1.01 ± 0.024	0.905 ± 0.25
N#C[C@@H]1C[C@@H]2C[C@@H]2N1C(=O)[C@@H](N)C12CC3CC(CC(O)(C3)C1)C2	1.02 ± 0.039	1.04 ± 0.049
CCS(=O)(=O)CCn1c([N+](=O)[O-])cnc1C	0.977 ± 0.068	0.989 ± 0.033
CCC1=C(C)CN(C(=O)NCCc2ccc(S(=O)(=O)NC(=O)N[C@H]3CC[C@H](C)CC3)cc2)C1=O	1.03 ± 0.028	1.1 ± 0.095
CC1(C)NC(=O)N(c2ccc([N+](=O)[O-])c(C(F)(F)F)c2)C1=O	1.03 ± 0.022	1.07 ± 0.062
CCCCCCc1ccc(O)cc1O	1 ± 0.054	0.982 ± 0.036
COC(=O)[C@@H]1[C@H]2C[C@H]3c4[nH]c5ccccc5c4CCN3C[C@@H]2CC[C@@H]1O	0.992 ± 0.016	1.02 ± 0.094
C[C@]12C=CC(=O)C=C1CC[C@@H]1[C@@H]2[C@@H](O)C[C@@]2(C)[C@H]1CC[C@]2(O)C(=O)COC(=O)CCC(=O)O	1.02 ± 0.016	0.815 ± 0.11
CC(=O)N[C@@H]([C@@H](O)[C@H](O)[C@H](O)CO)[C@@H](O)CC(=O)C(=O)O	1.02 ± 0.058	1.06 ± 0.24
CCOC(=O)C1=C[C@]2(CC)CCCN3CCc4c(n1c1ccccc41)[C@@H]32	0.954 ± 0.034	0.798 ± 0.22
Cc1cccc(CN2CCN(C(c3ccccc3)c3ccc(Cl)cc3)CC2)c1 (stereo not given)	0.974 ± 0.041	1.14 ± 0.051
COc1cnc(NS(=O)(=O)c2ccc(N)cc2)nc1	1.02 ± 0.023	0.905 ± 0.033
O=C(O)CCC(=O)Nc1ccc(S(=O)(=O)Nc2nccs2)cc1	0.989 ± 0.021	0.977 ± 0.034
O=NN(CCCl)C(=O)NC1CCCCC1	0.928 ± 0.067	0.934 ± 0.068
COc1ccccc1O	1.07 ± 0.064	0.977 ± 0.096
CC(=O)OCC1=C(C(=O)O)N2C(=O)[C@@H](NC(=O)CSc3ccncc3)[C@H]2SC1	1 ± 0.024	0.957 ± 0.042
CN(C)[C@@H]1C(O)=C(C(N)=O)C(=O)[C@@]2(O)C(O)=C3C(=O)c4c(O)ccc(Cl)c4[C@@](C)(O)[C@H]3C[C@@H]12	0.846 ± 0.031	0.23 ± 0.02
O=C1OC2(c3ccc(O)cc3Oc3cc(O)ccc32)c2ccccc21	1.02 ± 0.069	0.891 ± 0.079
CC(C)[C@H](NC(=O)[C@H](CC(=O)O)NC(=O)[C@H](CCCCN)NC(=O)[C@@H](N)CCCN=C(N)N)C(=O)N[C@@H](Cc1ccc(O)cc1)C(=O)O	0.935 ± 0.077	0.955 ± 0.14
C[C@]12CC[C@@H]3c4ccc(O)cc4CC[C@H]3[C@@H]1CCC2=O	1.17 ± 0.19	1.06 ± 0.14
CC1(C)[C@H]2CC[C@]1(CS(=O)(=O)O)C(=O)C2=Cc1ccc(C=C2C(=O)[C@@]3(CS(=O)(=O)O)CC[C@@H]2C3(C)C)cc1	0.978 ± 0.028	1.17 ± 0.22
COc1ccc(C(=O)c2ccc(C)cc2)c(O)c1	1.02 ± 0.028	0.926 ± 0.2
NC(=O)NC(=O)Cc1ccccc1	0.993 ± 0.021	0.979 ± 0.038

SMILES	normalized intracellular growth (time point: T3 (3 h))	normalized intracellular growth (time point: Tfinal (~6 h))
CN1[C@@H](CC(=O)c2ccccc2)CCC[C@H]1C[C@H](O)c1ccccc1	0.974 ± 0.048	1.13 ± 0.14
c1ccc2[nH]c(-c3cscn3)nc2c1	1.02 ± 0.034	1.19 ± 0.023
OC[C@@H](O)[C@@H](O[C@@H]1O[C@H](CO)[C@H](O)[C@H](O)[C@H]1O)[C@H](O)[C@@H](O)CO	1 and 0.956	1.01
COc1ccc(-c2cc(=O)c3c(O)cc(O[C@@H]4O[C@H](CO[C@@H]5O[C@@H](C)[C@H](O)[C@@H](O)[C@H]5O)[C@@H](O)[C@H](O)[C@H]4O)cc3o2)cc1O	1.04 ± 0.074	0.916 ± 0.11
O=C(Nc1ccccc1)c1ccccc1O	1.02 ± 0.035	1.01 ± 0.057
CS(=O)(=O)c1ccc(C2=C(c3ccccc3)C(=O)OC2)cc1	1.007 ± 0.0092	1.27 ± 0.098
Oc1ccc(Cl)c2c1CCC2	1.13 ± 0.017	1.12 ± 0.2
Cc1[nH]c(=O)c(C#N)cc1-c1ccncc1	0.9382 ± 0.0078	0.867 ± 0.087
C#C[C@]1(O)CC[C@H]2[C@@H]3CCc4cc(OC5CCCC5)ccc4[C@H]3CC[C@@]21C	0.99 ± 0.07	0.92 ± 0.34
CN(C)CCC=C1c2ccccc2CCc2ccccc21	1.02 ± 0.052	1.06 ± 0.048
Cc1ccnc2c1NC(=O)c1cccnc1N2C1CC1	1.08 ± 0.037	1.16 ± 0.15
N=C(N)N	1.02 ± 0.081	1 ± 0.13
C[C@]12CC[C@H]3C(=CCc4cc(O)ccc43)[C@@H]1CCC2=O	1.04 ± 0.049	1.23 ± 0.049
C[C@]12C=CC(=O)C=C1CC[C@@H]1[C@@H]2[C@@H](O)C[C@@]2(C)[C@H]1CC[C@]2(O)C(=O)COP(=O)(O)O	0.954 ± 0.029	1.16 ± 0.24
Cc1c(C(N)=O)cc([N+](=O)[O-])cc1[N+](=O)[O-]	0.958 ± 0.046	0.95 ± 0.089
C=C[C@H]1CN2CC[C@H]1C[C@@H]2[C@@H](O)c1ccnc2ccc(OC)cc12	0.945 ± 0.031	0.979 ± 0.037
Cc1cccc(C)c1NC(=O)C1CCCCN1C (stereo not given)	1.05 ± 0.064	1.04 ± 0.09
COc1ccc(C2C(=O)c3ccccc3C2=O)cc1	1 ± 0.11	1.1 ± 0.094
CN(C)c1ccc2nc3ccc(=[N+](C)C)cc-3sc2c1	1.29 ± 0.088	1.4 ± 0.2
Cc1ncc([N+](=O)[O-])n1CC(O)CCl (stereo not given)	1 ± 0.046	1.09 ± 0.2
CCCCC(CC)CN1CN(CC(CC)CCCC)CC(C)(N)C1 (stereo not given)	0.709 ± 0.16	0.861 ± 0.24
COc1cc2c(cc1OC)C(=O)C(CC1CCN(Cc3ccccc3)CC1)C2 (stereo not given)	1.14 ± 0.093	1.21 ± 0.073

Some of the entries so far, bar-delimited.
SMILES | normalized intracellular growth (time point: T3 (3 h)) | normalized intracellular growth (time point: Tfinal (~6 h))
CS(=O)(=O)c1ccc(C2=C(c3ccccc3)C(=O)OC2)cc1 | 1.007 ± 0.0092 | 1.27 ± 0.098
Cc1ccnc2c1NC(=O)c1cccnc1N2C1CC1 | 1.08 ± 0.037 | 1.16 ± 0.15
CCCCC(CC)CN1CN(CC(CC)CCCC)CC(C)(N)C1 (stereo not given) | 0.709 ± 0.16 | 0.861 ± 0.24
